# Reference: the supplement of paper PMC10849652
# By UniProt entry, the sequences of proteins in these tests, tags left out. Where a name states a change or a piece, a line headed by the entry shows the natural chain unless it says otherwise.
# UniProt Q9ULM6, whole entry, looked up: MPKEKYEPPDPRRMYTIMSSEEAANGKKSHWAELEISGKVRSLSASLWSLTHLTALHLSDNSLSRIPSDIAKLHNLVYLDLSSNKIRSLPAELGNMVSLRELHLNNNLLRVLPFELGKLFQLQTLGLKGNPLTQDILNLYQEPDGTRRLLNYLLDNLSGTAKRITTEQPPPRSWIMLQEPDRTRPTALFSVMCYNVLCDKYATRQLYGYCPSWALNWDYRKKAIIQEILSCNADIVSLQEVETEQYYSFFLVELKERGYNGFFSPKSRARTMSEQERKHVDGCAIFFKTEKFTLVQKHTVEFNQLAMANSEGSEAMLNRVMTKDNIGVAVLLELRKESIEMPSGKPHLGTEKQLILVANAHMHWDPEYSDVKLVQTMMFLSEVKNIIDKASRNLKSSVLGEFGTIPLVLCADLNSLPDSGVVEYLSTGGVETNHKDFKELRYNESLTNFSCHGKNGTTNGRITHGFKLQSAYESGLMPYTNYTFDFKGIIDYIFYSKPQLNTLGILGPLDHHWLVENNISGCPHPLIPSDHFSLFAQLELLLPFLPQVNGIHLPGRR
# UniProt Q9UIV1, whole entry, looked up: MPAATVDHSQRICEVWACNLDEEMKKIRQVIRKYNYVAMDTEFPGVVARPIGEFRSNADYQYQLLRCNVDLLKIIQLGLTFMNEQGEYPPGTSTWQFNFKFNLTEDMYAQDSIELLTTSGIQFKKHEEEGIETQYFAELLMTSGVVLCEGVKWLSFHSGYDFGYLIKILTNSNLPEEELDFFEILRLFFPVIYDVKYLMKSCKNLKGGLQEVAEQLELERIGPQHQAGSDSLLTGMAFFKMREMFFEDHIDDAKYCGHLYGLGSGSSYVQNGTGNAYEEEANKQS
# UniProt O75175, whole entry, looked up: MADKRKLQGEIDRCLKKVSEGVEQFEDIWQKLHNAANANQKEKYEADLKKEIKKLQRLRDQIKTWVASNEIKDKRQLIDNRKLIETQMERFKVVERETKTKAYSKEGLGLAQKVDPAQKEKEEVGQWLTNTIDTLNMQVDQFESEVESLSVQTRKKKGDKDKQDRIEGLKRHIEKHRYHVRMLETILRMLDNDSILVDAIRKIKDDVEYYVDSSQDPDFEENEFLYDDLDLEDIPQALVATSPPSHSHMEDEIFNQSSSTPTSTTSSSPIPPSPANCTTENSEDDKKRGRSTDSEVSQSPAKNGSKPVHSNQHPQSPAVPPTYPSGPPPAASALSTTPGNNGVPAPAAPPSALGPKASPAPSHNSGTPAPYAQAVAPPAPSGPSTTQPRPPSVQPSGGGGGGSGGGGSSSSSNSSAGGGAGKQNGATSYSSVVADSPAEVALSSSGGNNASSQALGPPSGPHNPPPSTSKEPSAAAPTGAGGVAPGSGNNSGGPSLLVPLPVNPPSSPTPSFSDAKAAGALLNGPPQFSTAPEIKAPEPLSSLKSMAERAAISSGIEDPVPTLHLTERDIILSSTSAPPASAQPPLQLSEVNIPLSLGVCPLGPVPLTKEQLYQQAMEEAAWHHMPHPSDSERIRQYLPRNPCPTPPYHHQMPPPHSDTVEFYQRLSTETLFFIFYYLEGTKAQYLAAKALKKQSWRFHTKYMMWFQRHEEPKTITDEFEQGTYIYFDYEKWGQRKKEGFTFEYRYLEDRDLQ
# UniProt Q9NQ92: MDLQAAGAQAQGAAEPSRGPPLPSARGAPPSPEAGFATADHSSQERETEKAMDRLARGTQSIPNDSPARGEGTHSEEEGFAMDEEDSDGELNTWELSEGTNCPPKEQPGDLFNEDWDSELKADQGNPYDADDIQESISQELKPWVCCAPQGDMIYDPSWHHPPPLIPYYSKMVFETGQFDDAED
# UniProt Q14019: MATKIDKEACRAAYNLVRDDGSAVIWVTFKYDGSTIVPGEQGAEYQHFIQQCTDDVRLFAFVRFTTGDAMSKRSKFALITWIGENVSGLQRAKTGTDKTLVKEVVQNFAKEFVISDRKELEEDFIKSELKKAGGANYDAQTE
# UniProt Q8N8Q8: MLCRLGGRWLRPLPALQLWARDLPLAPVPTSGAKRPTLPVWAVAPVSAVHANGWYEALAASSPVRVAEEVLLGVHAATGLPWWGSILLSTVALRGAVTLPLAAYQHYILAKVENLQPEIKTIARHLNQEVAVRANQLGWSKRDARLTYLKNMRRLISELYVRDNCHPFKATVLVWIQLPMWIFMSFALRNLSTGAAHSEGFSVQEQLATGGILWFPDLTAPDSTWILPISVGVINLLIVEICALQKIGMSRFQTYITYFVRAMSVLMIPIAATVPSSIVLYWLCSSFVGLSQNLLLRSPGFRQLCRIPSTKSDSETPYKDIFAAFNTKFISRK
# UniProt P61923: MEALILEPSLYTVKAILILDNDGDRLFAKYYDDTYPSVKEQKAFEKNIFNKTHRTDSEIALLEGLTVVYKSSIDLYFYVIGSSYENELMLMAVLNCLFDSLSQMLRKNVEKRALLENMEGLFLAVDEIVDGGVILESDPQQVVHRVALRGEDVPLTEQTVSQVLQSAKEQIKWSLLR
# UniProt Q9H9Q2: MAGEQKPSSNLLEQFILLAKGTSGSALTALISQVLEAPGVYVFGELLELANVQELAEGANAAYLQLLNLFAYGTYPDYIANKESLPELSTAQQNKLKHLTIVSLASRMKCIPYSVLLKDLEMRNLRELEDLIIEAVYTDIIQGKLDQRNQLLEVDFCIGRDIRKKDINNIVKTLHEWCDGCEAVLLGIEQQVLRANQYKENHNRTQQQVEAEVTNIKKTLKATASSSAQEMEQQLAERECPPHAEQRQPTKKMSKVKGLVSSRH
# UniProt P13073, whole entry, looked up: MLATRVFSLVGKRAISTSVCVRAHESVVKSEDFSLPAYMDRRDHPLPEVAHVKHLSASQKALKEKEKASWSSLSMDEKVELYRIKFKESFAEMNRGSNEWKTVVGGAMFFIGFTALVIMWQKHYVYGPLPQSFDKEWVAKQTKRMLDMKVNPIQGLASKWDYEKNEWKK
# UniProt Q9BRF8, whole entry, looked up: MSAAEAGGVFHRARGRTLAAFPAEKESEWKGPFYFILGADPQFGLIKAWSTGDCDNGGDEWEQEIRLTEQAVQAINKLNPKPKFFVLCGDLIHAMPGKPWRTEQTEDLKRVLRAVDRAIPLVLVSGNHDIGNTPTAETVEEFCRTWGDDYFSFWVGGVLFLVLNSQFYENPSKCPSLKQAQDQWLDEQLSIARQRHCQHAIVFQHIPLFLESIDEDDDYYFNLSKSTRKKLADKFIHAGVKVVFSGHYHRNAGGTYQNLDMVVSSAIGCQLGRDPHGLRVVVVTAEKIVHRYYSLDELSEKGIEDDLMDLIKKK
# UniProt O75976: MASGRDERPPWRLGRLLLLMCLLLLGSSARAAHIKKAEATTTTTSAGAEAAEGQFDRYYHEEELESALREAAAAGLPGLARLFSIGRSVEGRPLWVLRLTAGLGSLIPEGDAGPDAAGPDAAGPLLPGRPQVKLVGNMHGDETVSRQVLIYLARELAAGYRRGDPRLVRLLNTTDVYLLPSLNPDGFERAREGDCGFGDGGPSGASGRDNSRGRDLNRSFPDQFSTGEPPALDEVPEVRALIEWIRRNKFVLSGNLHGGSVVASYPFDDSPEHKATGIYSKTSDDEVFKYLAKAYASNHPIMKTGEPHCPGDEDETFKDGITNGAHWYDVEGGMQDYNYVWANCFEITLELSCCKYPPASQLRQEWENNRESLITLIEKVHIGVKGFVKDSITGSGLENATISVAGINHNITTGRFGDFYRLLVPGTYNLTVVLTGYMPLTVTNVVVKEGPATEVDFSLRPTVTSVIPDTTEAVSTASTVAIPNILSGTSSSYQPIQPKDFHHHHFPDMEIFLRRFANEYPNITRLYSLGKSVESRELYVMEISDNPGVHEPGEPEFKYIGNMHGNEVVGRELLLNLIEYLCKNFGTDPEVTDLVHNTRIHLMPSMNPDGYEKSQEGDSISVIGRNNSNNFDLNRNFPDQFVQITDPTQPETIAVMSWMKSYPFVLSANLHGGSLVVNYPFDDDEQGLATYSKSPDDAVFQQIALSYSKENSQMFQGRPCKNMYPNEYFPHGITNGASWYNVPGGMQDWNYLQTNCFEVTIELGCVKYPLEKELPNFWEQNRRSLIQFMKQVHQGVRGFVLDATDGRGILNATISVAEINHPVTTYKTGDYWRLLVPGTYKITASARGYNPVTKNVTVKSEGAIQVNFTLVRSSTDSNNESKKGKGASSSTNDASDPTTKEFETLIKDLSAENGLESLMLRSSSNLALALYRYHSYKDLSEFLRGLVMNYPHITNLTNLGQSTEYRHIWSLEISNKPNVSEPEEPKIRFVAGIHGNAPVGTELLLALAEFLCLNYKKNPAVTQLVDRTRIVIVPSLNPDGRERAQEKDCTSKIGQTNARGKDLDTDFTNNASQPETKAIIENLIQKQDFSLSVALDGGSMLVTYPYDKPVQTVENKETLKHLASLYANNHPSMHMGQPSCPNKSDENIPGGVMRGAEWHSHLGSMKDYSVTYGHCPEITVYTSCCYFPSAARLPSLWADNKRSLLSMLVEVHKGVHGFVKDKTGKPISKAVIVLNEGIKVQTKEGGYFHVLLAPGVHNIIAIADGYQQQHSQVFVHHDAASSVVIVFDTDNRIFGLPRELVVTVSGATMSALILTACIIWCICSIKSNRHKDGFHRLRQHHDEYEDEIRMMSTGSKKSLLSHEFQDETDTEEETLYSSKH
# UniProt Q9ULV4, whole entry, looked up: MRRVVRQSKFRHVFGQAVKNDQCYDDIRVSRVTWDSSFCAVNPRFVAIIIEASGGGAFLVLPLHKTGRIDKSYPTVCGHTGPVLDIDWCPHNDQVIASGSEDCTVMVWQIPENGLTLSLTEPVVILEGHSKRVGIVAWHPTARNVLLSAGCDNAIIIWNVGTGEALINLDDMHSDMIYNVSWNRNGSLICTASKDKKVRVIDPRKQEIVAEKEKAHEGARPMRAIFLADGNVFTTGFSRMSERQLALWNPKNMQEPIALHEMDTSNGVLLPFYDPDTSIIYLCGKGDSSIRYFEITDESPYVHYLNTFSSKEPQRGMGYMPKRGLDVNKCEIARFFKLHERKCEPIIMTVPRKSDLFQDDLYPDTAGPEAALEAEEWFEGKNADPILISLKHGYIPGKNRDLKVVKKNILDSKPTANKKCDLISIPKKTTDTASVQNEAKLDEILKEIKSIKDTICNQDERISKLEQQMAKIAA
# UniProt O95628: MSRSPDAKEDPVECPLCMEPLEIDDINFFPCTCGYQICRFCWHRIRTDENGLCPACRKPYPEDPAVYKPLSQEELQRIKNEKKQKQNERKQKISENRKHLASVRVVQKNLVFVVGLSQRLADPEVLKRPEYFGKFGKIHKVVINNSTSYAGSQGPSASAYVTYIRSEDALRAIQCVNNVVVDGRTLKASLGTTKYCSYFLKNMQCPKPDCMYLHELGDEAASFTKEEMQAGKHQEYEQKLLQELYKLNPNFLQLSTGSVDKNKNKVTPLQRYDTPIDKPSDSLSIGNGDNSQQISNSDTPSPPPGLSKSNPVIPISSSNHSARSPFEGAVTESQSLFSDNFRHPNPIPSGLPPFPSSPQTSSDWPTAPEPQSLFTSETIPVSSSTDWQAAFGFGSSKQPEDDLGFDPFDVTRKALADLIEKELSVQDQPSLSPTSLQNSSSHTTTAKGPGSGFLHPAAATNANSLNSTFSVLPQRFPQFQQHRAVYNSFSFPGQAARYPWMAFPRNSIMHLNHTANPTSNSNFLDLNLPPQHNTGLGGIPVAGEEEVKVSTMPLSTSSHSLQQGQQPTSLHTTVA
# UniProt Q9P000, whole entry, looked up: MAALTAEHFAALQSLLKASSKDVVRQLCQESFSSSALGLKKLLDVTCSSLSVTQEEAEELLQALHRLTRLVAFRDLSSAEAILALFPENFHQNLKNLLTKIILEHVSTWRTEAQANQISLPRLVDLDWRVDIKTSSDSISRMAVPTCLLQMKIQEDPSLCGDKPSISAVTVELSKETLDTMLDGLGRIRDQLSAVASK
# UniProt Q17RY0: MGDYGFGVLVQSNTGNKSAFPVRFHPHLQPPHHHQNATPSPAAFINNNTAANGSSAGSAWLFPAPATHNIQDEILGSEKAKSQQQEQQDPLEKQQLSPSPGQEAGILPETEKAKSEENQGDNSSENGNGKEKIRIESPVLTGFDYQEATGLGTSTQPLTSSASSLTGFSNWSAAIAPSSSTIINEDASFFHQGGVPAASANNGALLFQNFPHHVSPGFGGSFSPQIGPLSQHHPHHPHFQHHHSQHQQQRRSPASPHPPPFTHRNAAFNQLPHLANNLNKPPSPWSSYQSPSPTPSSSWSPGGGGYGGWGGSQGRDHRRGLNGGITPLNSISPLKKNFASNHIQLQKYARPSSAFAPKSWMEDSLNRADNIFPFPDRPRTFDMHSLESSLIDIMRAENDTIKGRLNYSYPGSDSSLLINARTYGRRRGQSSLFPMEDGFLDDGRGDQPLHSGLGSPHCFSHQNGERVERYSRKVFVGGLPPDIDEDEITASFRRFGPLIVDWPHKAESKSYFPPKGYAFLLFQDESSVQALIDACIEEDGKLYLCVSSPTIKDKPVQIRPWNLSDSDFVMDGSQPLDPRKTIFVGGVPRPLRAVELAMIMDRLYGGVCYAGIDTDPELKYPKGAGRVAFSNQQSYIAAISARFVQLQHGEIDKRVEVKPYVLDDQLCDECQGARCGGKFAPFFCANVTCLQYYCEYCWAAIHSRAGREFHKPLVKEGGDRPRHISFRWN
# This is one part of the list.
# Compound: C=CC(=O)N1CCC[C@@H](n2nc(-c3ccc(Oc4ccccc4)cc3)c3c(N)ncnc32)C1 [ibrutinib]
# Experiment: log2 fold change, soluble protein after heating vs DMSO (PISA); higher = thermal stabilisation; K562 lysate, 10 uM; active = over 0.2 and 3.5 SD of the protein, either way, in both replicates (recomputed)
# Method in brief: (§1)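 K562 pellets were dounce-homogenised in PBS pH 7.4 containing 1 mM MgCl2, and the crude extract, at 1 mg/mL protein, was exposed to 10 μM compound for 30 min. Aliquots were heated for 3 min across 48°C-58°C, pooled, brought to 0.5% NP-40 at 4°C and spun at 21,000xg for 90 min, with the supernatant taken as soluble protein. TMTpro 16plex LC-MS/MS with equalised channel sums quantified that protein. Values are log-two fold changes in thermal stability relative to solvent controls, taken from duplicates.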
row,Target,log2 fold change
1,CNOT10 (UniProt Q9H9A5),inactive: -0.003
2,COPA isoform 2 (UniProt P53621),inactive: -0.012
3,COPS3 (UniProt Q9UNS2),inactive: 0.004
4,COX7A2 (UniProt P14406),inactive: 0.038
5,CNOT6 (UniProt Q9ULM6),inactive: 0.033
6,CNOT7 (UniProt Q9UIV1),inactive: -0.011
7,CNOT3 (UniProt O75175),inactive: 0.023
8,COX5A (UniProt P20674),inactive: 0.032
9,COPRS (UniProt Q9NQ92),inactive: 0.141
10,COQ7 (UniProt Q99807),inactive: 0.014
11,COTL1 (UniProt Q14019),inactive: 0.038
12,COX11 (UniProt Q9Y6N1),inactive: 0.05
13,CRADD (UniProt P78560),inactive: 0.072
14,COMMD1 (UniProt Q8N668),inactive: -0.118
15,CNOT1 (UniProt A5YKK6),inactive: -0.012
16,CPSF7 isoform 3 (UniProt Q8N684),inactive: 0.069
17,COMTD1 (UniProt Q86VU5),inactive: 0.008
18,COX18 (UniProt Q8N8Q8),inactive: -0.004
19,COX19 (UniProt Q49B96),inactive: 0.061
20,COPZ1 isoform 4 (UniProt P61923),inactive: 0.123

row,Target,log2 fold change
1,CPSF1 (UniProt Q10570),inactive: 0.01
2,CNPY2 (UniProt Q9Y2B0),inactive: 0.037
3,CNST (UniProt Q6PJW8),inactive: 0
4,COA1 (UniProt Q9GZY4),inactive: -0.028
5,COPS7B (UniProt Q9H9Q2),inactive: 0.03
6,COQ3 (UniProt Q9NZJ6),inactive: 0.055
7,CNTN4 (UniProt Q8IWV2),inactive: -0.043
8,COX4I1 (UniProt P13073),inactive: 0.032
9,CPPED1 (UniProt Q9BRF8),inactive: 0.007
10,COPS4 (UniProt Q9BT78),inactive: 0.122
11,CPSF4 (UniProt O95639),inactive: 0.069
12,COMMD10 (UniProt Q9Y6G5),inactive: 0.055
13,CPD (UniProt O75976),inactive: 0
14,CORO1C isoform 3 (UniProt Q9ULV4),inactive: -0.003
15,CNOT4 isoform 6 (UniProt O95628),inactive: -0.004
16,COMMD9 (UniProt Q9P000),inactive: 0.023
17,COL18A1 (UniProt P39060),inactive: 0.021
18,CPEB4 (UniProt Q17RY0),inactive: 0.018
19,COX15 (UniProt Q7KZN9),inactive: 0.01
20,COX6A1 (UniProt P12074),inactive: -0.023

# Compound: CC(=O)c1cnc2ccc(-c3cc(Cl)c(O)c(Cl)c3)nc2c1N[C@H]1CC[C@H](CN(C)C)CC1
# Experiment: as above
# Method in brief: as §1
row,Target,log2 fold change
1,CNOT10 (UniProt Q9H9A5),inactive: -0.013
2,COPA isoform 2 (UniProt P53621),inactive: -0.011
3,COPS3 (UniProt Q9UNS2),inactive: -0.017
4,COX7A2 (UniProt P14406),inactive: -0.029
5,CNOT6 (UniProt Q9ULM6),inactive: 0.118
6,CNOT7 (UniProt Q9UIV1),inactive: 0.032
7,CNOT3 (UniProt O75175),inactive: -0.005
8,COX5A (UniProt P20674),inactive: -0.05
9,COPRS (UniProt Q9NQ92),inactive: 0.059
10,COQ7 (UniProt Q99807),inactive: 0.028
11,COTL1 (UniProt Q14019),inactive: 0.001
12,COX11 (UniProt Q9Y6N1),inactive: -0.01
13,CRADD (UniProt P78560),inactive: -0.005
14,COMMD1 (UniProt Q8N668),inactive: 0.025
15,CNOT1 (UniProt A5YKK6),inactive: 0.009
16,CPSF7 isoform 3 (UniProt Q8N684),inactive: 0.006
17,COMTD1 (UniProt Q86VU5),inactive: 0.07
18,COX18 (UniProt Q8N8Q8),inactive: -0.037
19,COX19 (UniProt Q49B96),inactive: 0.021
20,COPZ1 isoform 4 (UniProt P61923),inactive: 0.007

row,Target,log2 fold change
1,CPSF1 (UniProt Q10570),inactive: 0.006
2,CNPY2 (UniProt Q9Y2B0),inactive: 0.048
3,CNST (UniProt Q6PJW8),inactive: 0.006
4,COA1 (UniProt Q9GZY4),inactive: -0.001
5,COPS7B (UniProt Q9H9Q2),inactive: -0.036
6,COQ3 (UniProt Q9NZJ6),inactive: -0.043
7,CNTN4 (UniProt Q8IWV2),inactive: -0.154
8,COX4I1 (UniProt P13073),inactive: -0.015
9,CPPED1 (UniProt Q9BRF8),inactive: -0.013
10,COPS4 (UniProt Q9BT78),inactive: 0.01
11,CPSF4 (UniProt O95639),inactive: -0.035
12,COMMD10 (UniProt Q9Y6G5),inactive: -0.009
13,CPD (UniProt O75976),inactive: 0.002
14,CORO1C isoform 3 (UniProt Q9ULV4),inactive: -0.029
15,CNOT4 isoform 6 (UniProt O95628),inactive: 0.021
16,COMMD9 (UniProt Q9P000),inactive: -0.052
17,COL18A1 (UniProt P39060),inactive: -0.016
18,CPEB4 (UniProt Q17RY0),inactive: 0.006
19,COX15 (UniProt Q7KZN9),inactive: -0.013
20,COX6A1 (UniProt P12074),inactive: -0.075
